# Experimental data: PubChem BioAssay AID1671190 (National Center for Advancing Translational Sciences (NCATS), 2021)
# Chains of the proteins cited; added tags and fusions are not shown. Lines headed by an entry give the natural chain unless they say otherwise; changes in a name come on top.
# UniProt P18054: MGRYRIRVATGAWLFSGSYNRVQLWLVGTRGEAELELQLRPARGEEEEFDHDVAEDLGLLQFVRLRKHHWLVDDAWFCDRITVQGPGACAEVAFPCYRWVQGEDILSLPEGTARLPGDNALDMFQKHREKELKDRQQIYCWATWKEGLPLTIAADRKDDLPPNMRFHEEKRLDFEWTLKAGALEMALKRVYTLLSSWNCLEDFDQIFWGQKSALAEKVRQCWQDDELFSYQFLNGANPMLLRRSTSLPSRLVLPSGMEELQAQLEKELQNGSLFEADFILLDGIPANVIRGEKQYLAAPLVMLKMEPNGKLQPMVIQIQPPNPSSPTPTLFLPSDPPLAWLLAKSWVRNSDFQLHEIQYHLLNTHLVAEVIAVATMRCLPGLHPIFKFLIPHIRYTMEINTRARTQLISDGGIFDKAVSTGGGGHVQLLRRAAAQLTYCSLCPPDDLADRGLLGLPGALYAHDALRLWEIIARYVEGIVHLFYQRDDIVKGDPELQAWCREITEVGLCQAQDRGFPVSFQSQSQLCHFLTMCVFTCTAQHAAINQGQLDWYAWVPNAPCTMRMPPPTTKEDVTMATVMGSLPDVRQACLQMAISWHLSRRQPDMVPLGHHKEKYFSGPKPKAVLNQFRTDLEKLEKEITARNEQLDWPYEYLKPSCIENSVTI
# In all, about 580,000 compounds went through this assay and about 6,100 (1.1%) were called active. The shares of active, inactive and inconclusive entries below differ from those in the screen. The call rests on the fitted dose curve; in most records, active means well fitted inhibition curve with a large enough effect; inconclusive means small, poorly fitted or top-dose-only effect, or another doubt; inactive means no such curve, though single readings can be large or run the other way. Potencies beside an inconclusive call are fits to weak or partial responses and may not hold up.
# Molecular target: Polyunsaturated fatty acid lipoxygenase ALOX12 (Homo sapiens) (UniProt P18054)
# Experiment: Primary qHTS assay for inhibitors of human arachidonate 12S-lipoxygenase (ALOX12): Round 2
# Details: purified 12hLO, xylenol orange hydroperoxide absorbance; activity change, negative = inhibition: at 108 µM (top of the series) unless noted
# How it was run: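 Purified human 12hLO (150 nM final) in 25 mM Hepes, 0.01% Triton X-100, pH 7.0 was preincubated 15 min at room temperature with compound. Then 40 uM arachidonic acid was added, 30 min. Hydroperoxide was read by Fe-XO absorbance ratio 573/405 nm.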
# On the % scale 0 is the no-effect control and ±100 the full control effect; potency means the concentration at half of the fitted maximal effect.
SMILES,Potency,"activity change, negative = inhibition"
COc1ccc(N2CCC(CNC(=O)Nc3ccc(OC)cc3OC)C2)cc1 (centres undefined),"inconclusive: 28.2 µM [inhibitor, partial curve, poor fit]",
COc1ccc2c(c1)cc(C(=O)N[C@@H](Cc1ccccc1)C(=O)N[C@@H](C)C(=O)O)n2C,"inconclusive: 25.1 µM [inhibitor, partial curve, poor fit]",
Cc1cccc(C)c1-n1nnnc1SCC(=O)N(Cc1ccco1)C1=CCCCC1,,inactive: -52.3%
COc1ccc(-c2[nH]nc3c2C(c2cccc(OC)c2)CC(=O)O3)cc1 (centres undefined),"inconclusive: 56.2 µM [inhibitor, partial curve, poor fit]",
O=C(NCCSCc1cccs1)C1CCC1,,inactive: 2.43%
O=C(NCc1cccnc1)[C@@H]1C[C@@H](O)CN1C1CCN(C(=O)c2cc3ccccc3[nH]2)CC1,,inactive: -10%
CCc1ccc(CC2S/C(=C(\C#N)C(C)=O)NC2=O)cc1 (centres undefined),"inconclusive: 44.7 µM [inhibitor, partial curve, poor fit]",
COc1cccc(/C=N/Nc2ccc([N+](=O)[O-])cn2)c1O,,inactive: 4.08%
O=C(c1ccc(-c2ccco2)cc1)N1CCOc2ccc(CN3CCN(c4ccccn4)CC3)cc2C1,"inconclusive: 15.8 µM [inhibitor, partial curve, poor fit]",
O=C(CN1C(=O)/C(=C2\SC(=S)N(CCS(=O)(=O)O)C2=O)c2ccccc21)Nc1cccc(Br)c1,"inconclusive: 44.7 µM [inhibitor, partial curve, poor fit]",
COC(=O)CC1C(=O)NCCN1S(=O)(=O)c1ccc(Cl)cc1 (centres undefined),,inactive: 26.5%
COc1ccc(-c2nc(C3CC3)nc3c2CCN(C(=O)c2ccc4c(c2)OCO4)CC3)cc1,"inconclusive: 89.1 µM [inhibitor, partial curve, poor fit]",
COc1cc(/C=N/NC(=S)NCCN2CCOCC2)cc(OC)c1O,,inactive: -5.4%
CCOc1cc(/C=C2\N=C(SCC)SC2=O)cc([N+](=O)[O-])c1OC(C)=O,"inconclusive: 3.55 µM [inhibitor, single point]",
COc1cc(C(=O)CCN2CCC(c3ccccc3)C2)cc(OC)c1OC (centres undefined),,inactive: -14.8%
OCCc1ccc(O)cc1,,inactive: 7.71%
O[C@@H]1[C@@H](Cn2cc(C3CC3)nn2)C[C@@H](NCc2ccc(F)cc2)[C@@H]1O,"inconclusive: 50.1 µM [inhibitor, full curve]",
Cc1ccc(-n2nc3n(c2=O)CCN([S+](=O)([O-])c2c(C)noc2C)C3)cc1,,inactive: 34.8%
NCCC[C@@H](N)C(=O)N1CCCC(c2ccccc2)(c2ccccc2)C1,,inactive: -5.32%
CCOc1ccccc1OCCNC(C)Cc1ccc(OC)c(S(N)(=O)=O)c1 (centres undefined),"inconclusive: 89.1 µM [inhibitor, single point]",
CCOc1ccc(CCNC(=O)c2cc(=O)c3ccccc3o2)cc1OCC,,inactive: -1.42%
COc1ccc(NC(=O)C2Cc3c(-c4cccc(F)c4)ccnc3O2)cn1 (centres undefined),"inconclusive: 100 µM [inhibitor, partial curve, poor fit]",

SMILES,Potency,"activity change, negative = inhibition"
CN1CCN(c2ccc(NC(=O)COc3ccc4ccccc4c3)cc2)CC1,"inconclusive: 112 µM [inhibitor, single point]",
S=C(NCc1cccnc1)Nc1ccc(Cl)cc1Cl,"inconclusive: 126 µM [inhibitor, single point]",
COc1ccc(-c2oc3cccnc3c2/C=C/c2ccc(OC)c(OC)c2)cc1,"inconclusive: 35.5 µM [inhibitor, partial curve, poor fit]",
Cn1cc(S(=O)(=O)Nc2ccc(Oc3ccccc3)cc2)c(=O)n(C)c1=O,,inactive: 0%
O=C1COc2ccc(C(=O)CCl)cc2N1,"inconclusive: 31.6 µM [inhibitor, partial curve, poor fit]",
CCOC(=O)C1=C(CN2CCc3ccccc32)NC(=O)NC1c1ccc(Cl)cc1 (centres undefined),"inconclusive: 17.8 µM [inhibitor, full curve, poor fit]",
CCCC(C)NC(=S)NC(=O)c1cc(S(=O)(=O)N2CCOCC2)ccc1C (centres undefined),"inconclusive: 44.7 µM [inhibitor, partial curve, poor fit]",
CNC(=S)N/N=C/c1c(Cl)cccc1Cl,"inconclusive: 56.2 µM [inhibitor, partial curve, poor fit]",
Cc1ccc2cc(CN(CC(C)C)C(=O)c3ccco3)c(=O)[nH]c2c1,"inconclusive: 50.1 µM [inhibitor, partial curve, poor fit]",
CCNC(=S)N/N=C1\C(=O)c2cccc3cccc1c23,,inactive: 5.94%
O=C(O)c1cc(Br)c(Cl)[nH]1,"inconclusive: 0.562 µM [inhibitor, full curve, poor fit]",
COc1cc(C2Nc3ccccc3-c3nnc(SCc4ccc(C)cc4)nc3O2)cc(OC)c1O (centres undefined),"inconclusive: 39.8 µM [inhibitor, partial curve, poor fit]",
COc1cccc(C(=O)NC(=S)Nc2nnn(C)n2)c1,"inconclusive: 1.78 µM [inhibitor, full curve, poor fit]",
O=[N+]([O-])c1ccccc1CNc1ccc(NCc2ccccc2[N+](=O)[O-])cc1,"inconclusive: 44.7 µM [inhibitor, partial curve, poor fit]",
Cc1ccc(C)c(NC(NC(=O)c2ccc(Br)cc2)C(Cl)(Cl)Cl)c1 (centres undefined),"inconclusive: 126 µM [inhibitor, single point]",
N#Cc1nc(-c2ccccc2Cl)oc1NCc1ccccc1Cl,,inactive: -11.1%
COc1ccccc1NS(=O)(=O)c1cc(NC(=O)C(C)C)ccc1N1CCCCC1,,inactive: -25.5%
Cc1[nH]c2ccccc2c1C(=O)C(C)Sc1ccc2c(c1)OCCCO2 (centres undefined),active: 14.1 µM,
COc1cc(OC)c(NC2=NS(=O)(=O)C(c3ccc(C)c(C)c3)=C2C)cc1Cl,,inactive: -10.8%
CCC(C)NCCCCOc1ccc(C)cc1[N+](=O)[O-] (centres undefined),"inconclusive: 0.199 µM [inhibitor, full curve, poor fit]",
CCn1nc(NC(C)=O)c2cc3cccc(C)c3nc21,"inconclusive: 44.7 µM [inhibitor, partial curve, poor fit]",
O=C(Nc1ccc2[nH]c(=O)[nH]c2c1)c1ccc(Cl)c(Cl)c1,"inconclusive: 100 µM [inhibitor, partial curve, poor fit]",

# Some values from the entries so far:
# O=C(Nc1ccc2[nH]c(=O)[nH]c2c1)c1ccc(Cl)c(Cl)c1 – Potency: inconclusive: 100 µM [inhibitor, partial curve, poor fit]
# COc1cc(OC)c(NC2=NS(=O)(=O)C(c3ccc(C)c(C)c3)=C2C)cc1Cl – activity change, negative = inhibition: inactive: -10.8%
